According to the supplement of paper PMC11732987, “Enantioselective OTUD7B fragment discovery through chemoproteomics screening and high-throughput optimisation” (Communications Chemistry, 2025):
Some of the results follow. The data scatter; read single values as rough.

Columns and labels:
[1] = compound: ClCC(=O)N[C@@H]1CCCc2ccccc12; experiment: log2 mean competition ratio of IA-DTB cysteine labelling (DMSO/compound) (log2 ratio); higher = stronger cysteine engagement by compound; details: treatment time: 4 h, cell line lysate: HEK293T
Protocol: (§1)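 IA-DTB competitive cysteine chemoproteomics in HEK293T RIPA lysate. Lysates were treated with compound 29 or 30 at 50 or 200 µM for 4 h, then IA-DTB (500 µM, 1 h), trypsin-digested, NeutrAvidin-enriched and analysed by diaPASEF. Competition ratio = intensity DMSO / intensity compound (n=4 treated, n=64 DMSO); binding: mean log2 CR ≥ 1 and p ≤ 0.05 plus QC filters. Target is the cysteine site.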

[2] = compound: ClCC(=O)N[C@H]1CCCc2ccccc12; experiment: as above; details: treatment time: 4 h, cell line lysate: HEK293T
Protocol: as §1

Target	log2 mean competition ratio ([1]; 50 µM)	log2 mean competition ratio ([1]; 200 µM)	log2 mean competition ratio ([2]; 50 µM)	log2 mean competition ratio ([2]; 200 µM)
DNAJC13 C1474 (UniProt O75165)	-0.0844	-0.0762	-0.488	-0.253
DNM1 C169 (UniProt Q05193)	0.0569	-0.00241	0.415	0.167
DGCR8 C657 (UniProt Q8WYQ5)	-0.0159	-0.247	0.489	0.239
DNAAF5 C138 (UniProt Q86Y56)	0.0635	0.422	0.0528	0.394
DMD C3319 (UniProt P11532)	0.485	-0.128	0.933	0.199
DPY19L3 C684 (UniProt Q6ZPD9)	0.409	0.405	0.588	0.0544
DHX9 C438 (UniProt Q08211)	-0.216	-0.228	-0.263	-0.0914
DENND4C C126 (UniProt Q5VZ89)	1.29	4.1	-0.356	0.135
DIAPH3 C1158 (UniProt Q9NSV4)	-0.177	0.0488	-0.118	0.21
DHX29 C1025 (UniProt Q7Z478)	-0.00196	-0.242	-0.126	-0.0788
DNAJC7 C175 (UniProt Q99615)	0.4	0.447	0.695	0.539
DOCK11_(C150,C150,C160,C160)	-0.183	-0.00205	0.0843	-0.0618
DNMT3B C393 (UniProt Q9UBC3)	-0.159	-0.0435	-0.158	0.057
DIAPH3 C680 (UniProt Q9NSV4)	0.419	0.309	-0.128	0.539
DHX30 C346 (UniProt Q7L2E3)	-0.158	0.48	-0.222	0.381
DLGAP5 C592 (UniProt Q15398)	-0.439	-0.357	-0.176	-0.244
DNM1L C345 (UniProt O00429)	-0.193	-0.408	-0.148	-0.392
DNAJC7 C58 (UniProt Q99615)	-0.0873	-0.154	0.399	0.0834
DICER1 C1153 (UniProt Q9UPY3)	0.0144	0.0907	-0.142	0.129

Target	log2 mean competition ratio ([1]; 50 µM)	log2 mean competition ratio ([1]; 200 µM)	log2 mean competition ratio ([2]; 50 µM)	log2 mean competition ratio ([2]; 200 µM)
DHX8 C123 (UniProt Q14562)	-0.0733	0.179	-0.486	0.0486
DPP8 C611 (UniProt Q6V1X1)	-0.239	0.262	-0.266	0.266
DPYSL5 C22	0.0109	-0.222	1.23	-0.437
DHX36 C261 (UniProt Q9H2U1)	-0.186	-0.146	0.298	0.0893
DLG5 C1240 (UniProt Q8TDM6)	-0.241	0.235	-0.692	0.0938
DIDO1 C455 (UniProt Q9BTC0)	0.188	0.0334	0.14	0.0199
DMD C3229 (UniProt P11532)	-0.00237	0.282	0.14	0.297
DLG1 C378 (UniProt Q12959)	0.306	0.48	0.174	0.0207
DOCK4 C293	0.215	-0.0179	0.165	-0.1
DNTTIP2 C484 (UniProt Q5QJE6)	-0.07	0.227	0.264	0.0614
DOCK11 C1204	0.026	-0.0201	0.065	-0.153
DNAJC14 C422 (UniProt Q6Y2X3)	-0.127	0.062	-0.356	0.00904
DHX40 C139 (UniProt Q8IX18)	-0.18	0.231	-0.301	0.265
DIAPH2 C484 (UniProt O60879)	-0.156	0.305	-0.409	0.208
DFFA C165 (UniProt O00273)	-0.123	0.0664	-0.00289	0.0362
DNAJC11 C38 (UniProt Q9NVH1)	0.173	-1.76	-0.209	-0.287
DHX9 C1029 (UniProt Q08211)	0.186	0.174	0.261	0.296
DOK1 C463 (UniProt Q99704)	0.192	-0.0145	-0.025	0.00572
DICER1 C1354 (UniProt Q9UPY3)	0.129	-0.072	0.0833	-0.0348
